This is one part of the list. The main result of the screen is listed elsewhere. These columns were measured beside it and carry no call. Most of these compounds were active or inconclusive in the main read-out, so they are no random draw. Potencies come from curve fits of mixed quality, noted in brackets.

This experiment in a line: IkB Signaling. The following applies: ABC-DLBCL IkBa-CBG/CBR dual luciferase ratio (green luciferase fused to IkBa over red control in OCI-Ly3 lymphoma cells), 4 h; measured here: control luc red channel unless noted. Summed up: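 In this assay, an IκBα–CBG68 fusion accumulates when IKK-driven degradation is blocked; native CBR normalizes for cell number. OCI-Ly3 cells were treated 4 h with compound and doxycycline, then green and red light read after Chroma-Glo addition.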
The AC50 is the concentration giving half of the maximal activity seen. Take `O=C(Nc1ccc(Br)cc1)c1cccc(S(=O)(=O)N2CCc3ccccc32)c1`: the AC50 is 3.16 µM [falling, full curve].
With `CCN1C(=O)c2cccc3c(S(=O)(=O)Nc4ccc(OC)cc4OC)ccc1c23` the figure was 12.6 µM [falling, partial curve]; with `Cc1nc2c(c(C)nn2-c2ccccc2)c(C)c1CCC(=O)NCc1ccccc1`, 25.1 µM [falling, partial curve]; with `O=C(CSc1nnc(-c2ccco2)n1Cc1ccccc1)NC(=O)NCc1ccccc1`, 12.6 µM [falling, partial curve].
`Cc1cc2cc3c(cc2nc1SCC(=O)O)OCCO3`: the AC50 is 3.16 µM [falling, full curve, poor fit] [measured here: IkB-luc green channel].
In the case of `COc1ccc(C)cc1Nc1nc(N)c2cc(OC)c(OC)cc2n1`, the AC50 is 12.6 µM [falling, partial curve].
In the case of `COc1ccc(CN2CCCN(CC(=O)Nc3ccc4c(c3)OCCO4)S2(=O)=O)cc1` it was 25.1 µM [falling, partial curve, poor fit].
In the case of `O=C(c1ccccc1C(=O)N1CCN(c2ccc(F)cc2)CC1)N1CCN(c2ccc(F)cc2)CC1` it was 7.94 µM [falling, partial curve]; in that of `COc1ccc(C2CC(=O)N(CC(=O)Nc3cccc(C)c3C)c3ccccc3S2)cc1OC` (configuration not stated), 0.1 µM [falling, full curve, poor fit]; in that of `COc1ccc(N(CC(=O)NCCc2ccc(Cl)cc2)S(=O)(=O)c2c(C)nn(C)c2C)cc1`, 15.8 µM [falling, single point].
Consider `Cc1ccc(Sc2ccc(N3CCCC(C(=O)Nc4ccc(F)cc4F)C3)nn2)cc1` (configuration not stated), for which the concentration at half-maximal activity (AC50) is 3.98 µM [falling, full curve].
With `Cc1nn(C)c2c1c(C(F)(F)F)cc(=O)n2CC(=O)N1CCC(C)CC1`, the AC50 was 20 µM [falling, partial curve].
Turning to `O=C(CSc1nnc(COc2cccc3cccnc23)o1)c1ccc(F)cc1`, the AC50 is 39.8 µM [falling, single point].
On to `CCC(=O)N1CCc2cc(S(=O)(=O)NC(C(=O)Nc3cc(OC)cc(OC)c3)C(C)C)ccc21` (configuration not stated), for which the AC50 is 25.1 µM [falling, single point].
With `Cn1cnc(S(=O)(=O)N2CCCC(C(=O)Nc3ccc(OC(F)(F)F)cc3)C2)c1` (configuration not stated) the figure was 10 µM [falling, partial curve]; with `COCCCNC(=O)c1ccc2nc(CCc3ccccc3)oc2c1`, 2.51 µM [rising, partial curve]; with `C[C@@]12C=CC(=O)C=C1CC[C@@H]1[C@@H]2[C@H](O)C[C@]2(C)[C@@H]1CC[C@]2(O)C(=O)CO`, 6.31 nM [rising, full curve] [measured here: IkB-luc green channel].
